The other results are listed elsewhere or left out.

Protein sequences, listed by entry. Tags and fused reporters are not part of them. Lines headed by an entry give the natural chain unless they say otherwise; changes in a name come on top.
UniProt Q969G3, whole entry: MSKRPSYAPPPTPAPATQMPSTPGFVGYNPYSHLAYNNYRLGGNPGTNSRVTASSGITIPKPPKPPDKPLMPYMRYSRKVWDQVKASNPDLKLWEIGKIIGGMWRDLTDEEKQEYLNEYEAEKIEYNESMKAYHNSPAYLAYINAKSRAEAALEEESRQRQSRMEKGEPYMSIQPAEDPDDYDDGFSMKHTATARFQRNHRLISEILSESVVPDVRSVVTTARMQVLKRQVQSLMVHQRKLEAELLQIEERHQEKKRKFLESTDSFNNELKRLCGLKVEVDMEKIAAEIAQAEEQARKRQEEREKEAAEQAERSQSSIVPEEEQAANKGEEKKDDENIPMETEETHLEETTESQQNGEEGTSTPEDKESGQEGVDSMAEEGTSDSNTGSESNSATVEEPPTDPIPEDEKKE
UniProt Q12872: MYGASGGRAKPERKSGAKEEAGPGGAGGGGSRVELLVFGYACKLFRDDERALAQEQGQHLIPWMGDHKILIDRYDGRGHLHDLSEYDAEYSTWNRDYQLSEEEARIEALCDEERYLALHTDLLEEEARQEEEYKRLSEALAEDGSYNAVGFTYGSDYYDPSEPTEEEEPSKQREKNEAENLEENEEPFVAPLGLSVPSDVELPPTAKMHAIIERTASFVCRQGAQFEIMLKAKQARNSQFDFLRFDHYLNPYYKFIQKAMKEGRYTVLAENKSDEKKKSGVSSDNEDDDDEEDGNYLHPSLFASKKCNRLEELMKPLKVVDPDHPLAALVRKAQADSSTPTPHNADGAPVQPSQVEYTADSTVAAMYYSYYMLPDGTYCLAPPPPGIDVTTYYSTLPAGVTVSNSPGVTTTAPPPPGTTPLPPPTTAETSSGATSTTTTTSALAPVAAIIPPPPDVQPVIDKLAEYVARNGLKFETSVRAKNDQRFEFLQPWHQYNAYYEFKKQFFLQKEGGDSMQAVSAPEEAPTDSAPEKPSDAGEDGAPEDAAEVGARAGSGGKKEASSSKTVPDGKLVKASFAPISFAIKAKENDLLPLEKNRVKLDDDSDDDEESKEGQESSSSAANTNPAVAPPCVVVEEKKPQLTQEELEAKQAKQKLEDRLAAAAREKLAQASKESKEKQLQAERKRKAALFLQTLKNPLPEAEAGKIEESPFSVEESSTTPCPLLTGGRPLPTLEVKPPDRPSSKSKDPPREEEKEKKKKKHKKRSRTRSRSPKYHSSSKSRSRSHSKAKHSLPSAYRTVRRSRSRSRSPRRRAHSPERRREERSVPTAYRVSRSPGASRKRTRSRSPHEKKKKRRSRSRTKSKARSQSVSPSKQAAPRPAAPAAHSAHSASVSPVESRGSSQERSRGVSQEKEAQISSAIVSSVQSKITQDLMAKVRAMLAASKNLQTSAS
UniProt Q08170: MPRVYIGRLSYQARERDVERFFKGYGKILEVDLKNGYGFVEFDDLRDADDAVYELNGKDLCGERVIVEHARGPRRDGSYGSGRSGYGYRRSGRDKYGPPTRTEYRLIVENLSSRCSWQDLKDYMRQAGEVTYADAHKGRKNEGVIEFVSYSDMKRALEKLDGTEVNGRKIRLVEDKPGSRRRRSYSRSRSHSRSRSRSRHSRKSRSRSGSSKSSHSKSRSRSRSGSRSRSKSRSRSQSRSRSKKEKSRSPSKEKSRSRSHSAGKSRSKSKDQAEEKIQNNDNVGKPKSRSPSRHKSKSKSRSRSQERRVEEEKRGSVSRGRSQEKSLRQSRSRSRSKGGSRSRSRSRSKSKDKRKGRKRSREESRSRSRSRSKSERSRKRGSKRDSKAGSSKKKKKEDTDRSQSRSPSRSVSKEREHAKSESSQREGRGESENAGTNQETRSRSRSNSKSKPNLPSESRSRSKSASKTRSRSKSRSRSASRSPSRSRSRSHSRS
UniProt O75940: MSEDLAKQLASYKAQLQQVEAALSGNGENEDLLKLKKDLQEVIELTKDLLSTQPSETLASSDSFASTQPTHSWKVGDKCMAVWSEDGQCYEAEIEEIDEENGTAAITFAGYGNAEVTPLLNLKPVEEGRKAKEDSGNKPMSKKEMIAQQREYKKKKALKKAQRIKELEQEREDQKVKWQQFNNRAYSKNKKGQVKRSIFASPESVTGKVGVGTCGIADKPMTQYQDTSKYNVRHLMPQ
UniProt Q9Y289: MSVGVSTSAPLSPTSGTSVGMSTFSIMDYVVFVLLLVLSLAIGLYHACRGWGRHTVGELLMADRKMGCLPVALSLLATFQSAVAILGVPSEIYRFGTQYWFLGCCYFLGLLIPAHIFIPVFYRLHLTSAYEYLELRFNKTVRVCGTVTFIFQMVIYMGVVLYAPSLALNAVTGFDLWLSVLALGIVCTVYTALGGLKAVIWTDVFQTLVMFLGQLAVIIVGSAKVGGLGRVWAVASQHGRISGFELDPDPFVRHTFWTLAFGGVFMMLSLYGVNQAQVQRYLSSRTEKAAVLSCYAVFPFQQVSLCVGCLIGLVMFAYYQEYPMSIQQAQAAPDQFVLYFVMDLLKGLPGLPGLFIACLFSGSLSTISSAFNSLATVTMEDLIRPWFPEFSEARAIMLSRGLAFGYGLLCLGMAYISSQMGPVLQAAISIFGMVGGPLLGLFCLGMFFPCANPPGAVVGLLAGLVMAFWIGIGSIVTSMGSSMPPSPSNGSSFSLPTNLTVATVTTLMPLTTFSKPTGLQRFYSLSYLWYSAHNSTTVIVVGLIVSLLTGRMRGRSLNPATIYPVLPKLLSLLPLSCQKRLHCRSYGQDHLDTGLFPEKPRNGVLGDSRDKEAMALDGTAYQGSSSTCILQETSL
UniProt P09661: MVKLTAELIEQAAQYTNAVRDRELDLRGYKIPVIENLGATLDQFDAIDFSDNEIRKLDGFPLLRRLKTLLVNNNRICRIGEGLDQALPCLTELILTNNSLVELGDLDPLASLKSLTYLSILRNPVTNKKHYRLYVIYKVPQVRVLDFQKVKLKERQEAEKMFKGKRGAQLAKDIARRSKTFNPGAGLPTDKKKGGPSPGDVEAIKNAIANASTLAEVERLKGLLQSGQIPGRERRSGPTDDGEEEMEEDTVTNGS
UniProt O75368: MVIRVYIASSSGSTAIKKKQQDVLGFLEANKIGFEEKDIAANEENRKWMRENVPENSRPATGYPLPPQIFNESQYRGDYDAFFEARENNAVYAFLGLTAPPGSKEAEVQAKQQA
UniProt Q96H78: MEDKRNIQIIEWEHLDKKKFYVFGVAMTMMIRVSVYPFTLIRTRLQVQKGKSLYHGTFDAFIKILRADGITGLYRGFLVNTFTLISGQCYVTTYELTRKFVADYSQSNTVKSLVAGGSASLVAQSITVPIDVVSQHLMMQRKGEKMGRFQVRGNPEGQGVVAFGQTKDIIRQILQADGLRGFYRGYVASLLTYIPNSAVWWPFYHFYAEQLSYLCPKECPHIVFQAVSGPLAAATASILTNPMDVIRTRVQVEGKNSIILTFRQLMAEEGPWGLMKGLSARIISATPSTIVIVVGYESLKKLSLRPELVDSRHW
UniProt P62995: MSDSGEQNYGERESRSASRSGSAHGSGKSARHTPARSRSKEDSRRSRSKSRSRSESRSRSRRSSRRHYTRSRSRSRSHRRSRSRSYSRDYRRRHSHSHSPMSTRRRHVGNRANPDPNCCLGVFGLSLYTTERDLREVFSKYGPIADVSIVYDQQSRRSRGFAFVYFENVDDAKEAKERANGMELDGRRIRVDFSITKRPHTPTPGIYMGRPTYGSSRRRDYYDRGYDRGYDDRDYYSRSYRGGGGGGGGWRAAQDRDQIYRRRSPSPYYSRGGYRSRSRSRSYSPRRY
UniProt Q149N8: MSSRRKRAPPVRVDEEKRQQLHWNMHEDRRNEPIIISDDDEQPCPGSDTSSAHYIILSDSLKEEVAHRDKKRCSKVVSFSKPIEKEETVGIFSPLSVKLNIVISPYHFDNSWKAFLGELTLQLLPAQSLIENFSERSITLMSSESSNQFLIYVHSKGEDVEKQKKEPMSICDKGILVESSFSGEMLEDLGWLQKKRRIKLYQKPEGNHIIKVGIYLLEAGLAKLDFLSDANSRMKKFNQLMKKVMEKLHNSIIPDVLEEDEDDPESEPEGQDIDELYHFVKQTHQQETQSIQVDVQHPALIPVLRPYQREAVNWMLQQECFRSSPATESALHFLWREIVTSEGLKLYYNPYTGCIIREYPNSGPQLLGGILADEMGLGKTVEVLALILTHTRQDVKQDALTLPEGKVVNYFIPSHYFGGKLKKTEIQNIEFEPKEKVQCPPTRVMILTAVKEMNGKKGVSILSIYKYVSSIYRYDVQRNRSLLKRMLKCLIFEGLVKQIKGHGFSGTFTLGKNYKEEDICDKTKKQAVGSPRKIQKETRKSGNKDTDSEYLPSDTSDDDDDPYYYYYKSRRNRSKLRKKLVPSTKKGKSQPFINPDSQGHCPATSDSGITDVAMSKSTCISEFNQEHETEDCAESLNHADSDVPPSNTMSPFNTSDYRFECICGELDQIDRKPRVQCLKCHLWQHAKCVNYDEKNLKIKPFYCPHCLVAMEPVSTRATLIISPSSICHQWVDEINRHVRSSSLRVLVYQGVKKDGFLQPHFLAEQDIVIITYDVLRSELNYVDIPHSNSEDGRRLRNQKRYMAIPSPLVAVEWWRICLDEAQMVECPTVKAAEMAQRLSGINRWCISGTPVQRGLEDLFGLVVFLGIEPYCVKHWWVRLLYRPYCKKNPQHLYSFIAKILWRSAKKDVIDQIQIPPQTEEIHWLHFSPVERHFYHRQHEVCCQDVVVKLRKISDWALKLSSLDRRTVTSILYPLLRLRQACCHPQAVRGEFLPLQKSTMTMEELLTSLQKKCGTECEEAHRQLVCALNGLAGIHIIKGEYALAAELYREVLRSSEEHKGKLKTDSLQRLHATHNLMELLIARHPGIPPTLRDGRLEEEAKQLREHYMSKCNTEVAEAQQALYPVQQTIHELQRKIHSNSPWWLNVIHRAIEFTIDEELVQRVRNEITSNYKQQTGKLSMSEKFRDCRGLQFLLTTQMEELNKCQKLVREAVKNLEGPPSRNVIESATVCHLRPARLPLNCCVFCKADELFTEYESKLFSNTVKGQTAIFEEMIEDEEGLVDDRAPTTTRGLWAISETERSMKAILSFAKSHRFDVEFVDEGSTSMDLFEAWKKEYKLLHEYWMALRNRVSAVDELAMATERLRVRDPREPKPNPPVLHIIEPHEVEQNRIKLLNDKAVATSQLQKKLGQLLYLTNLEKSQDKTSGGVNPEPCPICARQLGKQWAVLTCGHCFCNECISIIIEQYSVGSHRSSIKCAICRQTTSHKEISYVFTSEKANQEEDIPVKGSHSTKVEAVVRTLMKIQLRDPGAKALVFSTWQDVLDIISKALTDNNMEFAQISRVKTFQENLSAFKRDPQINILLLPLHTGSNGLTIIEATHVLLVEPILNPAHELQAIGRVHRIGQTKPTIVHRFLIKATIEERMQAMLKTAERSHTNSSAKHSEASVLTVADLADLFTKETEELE
UniProt Q6ZQN7: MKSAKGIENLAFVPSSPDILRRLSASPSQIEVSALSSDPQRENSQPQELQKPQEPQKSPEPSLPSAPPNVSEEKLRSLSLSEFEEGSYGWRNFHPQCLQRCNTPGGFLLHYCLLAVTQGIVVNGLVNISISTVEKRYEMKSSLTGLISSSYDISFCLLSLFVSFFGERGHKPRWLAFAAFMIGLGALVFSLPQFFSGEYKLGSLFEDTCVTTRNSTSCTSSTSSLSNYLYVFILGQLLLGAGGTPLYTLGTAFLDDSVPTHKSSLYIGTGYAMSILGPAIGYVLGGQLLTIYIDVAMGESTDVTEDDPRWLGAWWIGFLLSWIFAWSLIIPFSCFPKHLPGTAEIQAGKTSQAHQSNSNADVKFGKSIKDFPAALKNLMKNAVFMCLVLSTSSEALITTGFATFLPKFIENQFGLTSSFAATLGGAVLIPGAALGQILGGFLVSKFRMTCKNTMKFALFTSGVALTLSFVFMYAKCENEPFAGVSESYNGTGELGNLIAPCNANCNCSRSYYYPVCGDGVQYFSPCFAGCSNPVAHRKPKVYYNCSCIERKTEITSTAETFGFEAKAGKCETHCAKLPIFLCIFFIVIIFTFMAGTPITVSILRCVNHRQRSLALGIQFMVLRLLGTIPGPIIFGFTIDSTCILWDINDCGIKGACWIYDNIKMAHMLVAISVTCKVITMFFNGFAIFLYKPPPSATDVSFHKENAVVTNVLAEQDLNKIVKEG
UniProt Q9UHJ6: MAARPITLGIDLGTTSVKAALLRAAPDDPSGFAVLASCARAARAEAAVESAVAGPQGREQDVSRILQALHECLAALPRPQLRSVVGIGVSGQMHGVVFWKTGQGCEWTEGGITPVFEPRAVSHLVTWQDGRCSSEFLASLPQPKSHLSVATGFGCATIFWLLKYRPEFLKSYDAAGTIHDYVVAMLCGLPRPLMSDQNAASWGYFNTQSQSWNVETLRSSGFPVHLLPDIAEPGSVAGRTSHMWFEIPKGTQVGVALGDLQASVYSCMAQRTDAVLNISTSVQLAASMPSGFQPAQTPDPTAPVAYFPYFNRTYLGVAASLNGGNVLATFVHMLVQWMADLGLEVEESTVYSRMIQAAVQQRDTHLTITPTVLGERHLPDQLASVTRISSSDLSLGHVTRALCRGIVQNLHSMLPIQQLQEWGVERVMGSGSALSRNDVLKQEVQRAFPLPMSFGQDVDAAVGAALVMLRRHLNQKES

Compound in the experiment: COc1ccc(Cn2ccc3cc(C)c(C(=O)NO)cc32)cc1
Kind of experiment: dose-dependent thermal stabilisation call (2D-TPP, DLPTP, 10% FDR) (binary (1 = stabilised)); higher = stabilised by the compound. To be noted: system: HL-60 intact cells; concentration range 0.04-10 µM. How it is done:
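2D thermal proteome profiling in intact HL-60 cells treated with BRD-3811 (0, 0.04, 0.29, 2, 10 uM) for 90 min at 37 C, then heated 3 min at one of 12 temperatures (42-63.9 C). Soluble protein was quantified by TMT10 MS. The value is the DLPTP call of the paper: dose-dependent thermal stabilisation over all temperatures at 10% FDR (F-test of a dose-response against a flat model); one experiment, one call per tested protein.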
In the case of SLC25A6 (UniProt P12236), the “dose-dependent thermal stabilisation call” value is inactive: 0.

Consider SLC30A7 (UniProt Q8NEW0), for which the “dose-dependent thermal stabilisation call” value is inactive: 0. With SNAPIN (UniProt O95295) the figure was inactive: 0; with SLC38A7 (UniProt Q9NVC3), inactive: 0; with SIL1 (UniProt Q9H173), inactive: 0. Regarding SFRS3 (UniProt P84103), the “dose-dependent thermal stabilisation call” value was inactive: 0. The figure for SF3B5 (UniProt Q9BWJ5) is inactive: 0. The figure for SMARCE1 (UniProt Q969G3) is inactive: 0. The figure for SFRS8 (UniProt Q12872) is inactive: 0; for SFRS4 (UniProt Q08170) it is inactive: 0. Take SMNDC1 (UniProt O75940): the “dose-dependent thermal stabilisation call” value was inactive: 0. The figure for SLC5A6 (UniProt Q9Y289) is inactive: 0; for SIGMAR1 (UniProt Q99720) it is inactive: 0. The figure for SLC26A6 (UniProt Q9BXS9) is inactive: 0; for SETD1A (UniProt O15047) it is inactive: 0. With SLC9A3R1 (UniProt O14745), the “dose-dependent thermal stabilisation call” value is inactive: 0. With SLC31A1 (UniProt O15431) the figure was inactive: 0. Consider SMARCAL1 (UniProt Q9NZC9), for which the “dose-dependent thermal stabilisation call” value is inactive: 0.

Consider SMARCA5 (UniProt O60264), for which the “dose-dependent thermal stabilisation call” value is inactive: 0. Turning to SLC25A5 (UniProt P05141), the “dose-dependent thermal stabilisation call” value is inactive: 0. Consider SNRPA1 (UniProt P09661), for which the “dose-dependent thermal stabilisation call” value was inactive: 0.

On to SH3BGRL (UniProt O75368), for which the “dose-dependent thermal stabilisation call” value is inactive: 0. With SLC25A44 (UniProt Q96H78) the figure was inactive: 0. The figure for SND1 (UniProt Q7KZF4) is inactive: 0; for SNRNP200 (UniProt O75643) it is inactive: 0; for SLC26A2 (UniProt P50443) it is inactive: 0. The figure for SFRS10 (UniProt P62995) is inactive: 0. SMARCAD1 (UniProt Q9H4L7): the “dose-dependent thermal stabilisation call” value was inactive: 0. Turning to SHPRH (UniProt Q149N8), the “dose-dependent thermal stabilisation call” value was inactive: 0. With SLC35B2 (UniProt Q8TB61) the figure was inactive: 0; with SMARCD2 (UniProt Q92925), inactive: 0; with SLC9A6 (UniProt Q92581), inactive: 0.

With SMAD4 (UniProt Q13485), the “dose-dependent thermal stabilisation call” value was inactive: 0. With SLC25A12 (UniProt O75746) the figure was inactive: 0; with SLC25A19 (UniProt Q9HC21), inactive: 0; with SLC16A1 (UniProt P53985), inactive: 0.

As for SLCO4C1 (UniProt Q6ZQN7), the “dose-dependent thermal stabilisation call” value was inactive: 0.

Regarding SF3A2 (UniProt Q15428), the “dose-dependent thermal stabilisation call” value was inactive: 0. Consider SLC39A10 (UniProt Q9ULF5), for which the “dose-dependent thermal stabilisation call” value is inactive: 0.

SHPK (UniProt Q9UHJ6): the “dose-dependent thermal stabilisation call” value is inactive: 0.

(Values after the supplement of paper PMC7666118.)
